Laboratory results published in the supplement of paper PMC12823440, “Inhibitors supercharge kinase turnover through native proteolytic circuits” (Nature, 2025).
Structures can show the parent of a compound that is named as a salt. The list shows a part of the results. The calls rarely recur for the same compound in another form.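 Kinases, fused to nanoluciferase, were expressed in K562 cells; luminescence was measured every 4 h from 2 to 18 h as percent of control (DMSO = 100%, positive control = 0%). A time point is decreased if signal falls significantly (2 sigma). Hits were called by the authors by a rule that is not shown; the count of time points alone does not decide it.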

Sequences of proteins named here, by UniProt entry; tags and fusion partners are left off. A change or cut given only in a name is not applied to a line headed by its entry.
UniProt P49137, whole entry, looked up: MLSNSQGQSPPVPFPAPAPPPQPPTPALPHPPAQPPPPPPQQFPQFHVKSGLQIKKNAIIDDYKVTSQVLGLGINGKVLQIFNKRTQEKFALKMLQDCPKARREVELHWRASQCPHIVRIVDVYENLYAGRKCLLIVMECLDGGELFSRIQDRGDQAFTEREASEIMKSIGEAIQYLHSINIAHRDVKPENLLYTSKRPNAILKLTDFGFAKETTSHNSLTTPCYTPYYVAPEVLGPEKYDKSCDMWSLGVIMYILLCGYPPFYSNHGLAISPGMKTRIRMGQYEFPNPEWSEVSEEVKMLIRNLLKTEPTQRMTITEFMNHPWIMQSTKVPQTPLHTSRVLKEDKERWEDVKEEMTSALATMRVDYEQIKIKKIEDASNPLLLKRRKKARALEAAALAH
UniProt Q9BUB5: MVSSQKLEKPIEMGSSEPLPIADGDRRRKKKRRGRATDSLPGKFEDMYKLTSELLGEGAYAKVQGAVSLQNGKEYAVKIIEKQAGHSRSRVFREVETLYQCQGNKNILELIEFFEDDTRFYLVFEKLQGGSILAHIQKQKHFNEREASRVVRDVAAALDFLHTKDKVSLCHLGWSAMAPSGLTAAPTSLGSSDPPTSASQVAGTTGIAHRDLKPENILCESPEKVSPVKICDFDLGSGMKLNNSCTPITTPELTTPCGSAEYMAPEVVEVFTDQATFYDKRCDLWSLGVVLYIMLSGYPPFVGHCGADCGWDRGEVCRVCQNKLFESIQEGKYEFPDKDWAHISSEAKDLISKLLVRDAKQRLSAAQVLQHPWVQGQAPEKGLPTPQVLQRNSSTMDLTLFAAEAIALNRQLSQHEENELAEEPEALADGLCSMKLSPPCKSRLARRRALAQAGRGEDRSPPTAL

molecular target: MAPKAPK2 (UniProt P49137); experiment: number of time points (of 5) at which kinase-Nluc abundance scored as decreased, DMSO-normalised (count); higher = more persistent destabilization; conditions: K562; 2-18 h

| Compound | number of time points |
| --- | --- |
| Cc1c(-c2ccc(C(N)=O)c3[nH]c4cc(C(C)(C)O)ccc4c23)cccc1-n1cnc2ccccc2c1=O (2.5 µM) | 0 |
| CC(C)(C)n1nc(Cc2ccccc2O)c2c(N)ncnc21 (10 µM) | 0 |
| C=CC(=O)N1C(=O)CC(c2ccc(F)cc2)Sc2ccccc21 (stereo not drawn) [GSK-3β inhibitor 3] (10 µM) | 0 |
| CCc1ccc(OCC(=O)Nc2ccc(F)c([N+](=O)[O-])c2)cc1 (10 µM) | 0 |
| CN(C)c1nc2c(Br)c(Br)c(Br)c(Br)c2[nH]1 (10 µM) | 0 |
| Nc1ncnc2c1c(-c1ccc(Oc3ccccc3)cc1)nn2C1CCN(CCOCCOCCOc2ccc3c(c2)CN(C2CCC(=O)NC2=O)C3=O)CC1 (stereo not given) (2.5 µM) | 0 |
| Cc1cnc(NC2CCOCC2)nc1-n1cnc(C(=O)N[C@H](CN)c2cc(F)cc(Cl)c2)c1 (10 µM) | 0 |
| FC(F)(F)c1ccc(/C=C/c2nc(COc3ccc(CCCCn4ccnn4)cc3)co2)cc1 [Mubritinib] (10 µM) | 0 |
| Cc1cc2sc(NC(=O)Cc3ccccc3)nc2cc1Cl (10 µM) | 0 |
| O=C(CNc1cccc(Cl)c1)NC1CCCN(c2ncnc3[nH]ccc23)C1 (stereo not given) (10 µM) | 0 |
| Oc1ccc(/C=C/c2cc(O)cc(F)c2)cc1 [Resveratrol analog 1] (10 µM) | 0 |
| CC/C(=N\NC(=O)c1ccnc(NCCCN2CCOCC2)c1)c1ccc(Cl)cc1O (2.5 µM) | 0 |
| O[C@@H]1CO[C@H]2[C@@H]1OC[C@H]2Oc1nc2nc(-c3ccc(-c4ccccc4)cc3)c(Cl)cc2[nH]1 (10 µM) | 0 |
| Nc1c(C(=O)NCc2ccc(C(=O)NCCCC3CCCCC3)cc2)cnn1-c1ccccc1 (2.5 µM) | 0 |
| Cc1ccc(C(=O)Nc2sc(Nc3ccccc3)nc2C(N)=O)cc1 (10 µM) | 0 |
| COc1cc(N(C)CCN(C)C)c(N)cc1Nc1nccc(-c2cn(C)c3ccccc23)n1 [Mutated EGFR-IN-1] (10 µM) | 0 |
| CCN(CC)c1cc2oc(=O)c(-c3nc4ccccc4o3)cc2cc1C (2.5 µM) | 0 |
| Cn1cc(-c2cnc3cnn(S(=O)(=O)c4cnc5ccc(-c6cnn(C)c6)cn45)c3c2)cn1 [Glumetinib] (10 µM) | 0 |
| Cc1ccc(NC(=O)c2ccnc(C(F)(F)F)c2)cc1-c1cc(OCCO)nc(N2CCOCC2)c1 (10 µM) | 0 |
| C=CC(=O)Nc1cccc(-c2cccc3cnc(Nc4ccc(N5CCN(CCO)CC5)c(F)c4F)nc23)c1 [Olafertinib] (2.5 µM) | 0 |
| CC(C)(C[C@H](N)C(=O)O)C(F)F [NV-5138 (hydrochloride)] (10 µM) | 0 |
| Cc1cc(C)nc(NS(=O)(=O)c2ccc(NC(=S)NC(=O)COc3ccc(Br)cc3Cl)cc2)n1 (2.5 µM) | 0 |
| CC[C@@](C)(Nc1ccnc(-c2c[nH]c3ncccc23)n1)C(=O)NCC(F)(F)F [Decernotinib] (10 µM) | 0 |
| COc1cc2ncnc(-n3nc(-c4ccccn4)nc3N)c2cc1OC (10 µM) | 0 |
| O=C1/C(=C\c2ccc(Cl)cc2)C=C(c2ccccc2)N1c1ccc(O)cc1 (2.5 µM) | 0 |
| Oc1ccc(/C=C/c2cc(O)cc(O)c2)cc1 [Resveratrol] (10 µM) | 0 |

molecular target: MKNK1 (UniProt Q9BUB5); experiment: as above; conditions: K562; 2-18 h

| Compound | number of time points |
| --- | --- |
| CN1C(=O)[C@@H](NC(=O)c2n[nH]c(Cc3ccccc3)n2)COc2ccccc21 (10 µM) | 0 |
| O=C1NC(=Nc2c(Cl)cccc2Cl)S/C1=C\c1ccc2nccnc2c1 (2.5 µM) | 0 |
| Cc1cccc(-c2[nH]c(C(C)(C)C)nc2-c2ccc3nccnc3c2)n1 (10 µM) | 0 |
| O=C(Nc1cccc(C(F)(F)F)c1)c1cccc2cc(Oc3cc(CO)ncn3)ccc12 (10 µM) | 0 |
| CNc1cc(Nc2cccn(-c3ccccn3)c2=O)nn2c(C(=O)N[C@@H]3C[C@@H]3F)cnc12 (2.5 µM) | 0 |
| Cc1ccn2c(C(=O)C(=O)c3ccccc3)c(-c3ccccc3)nc2c1 (10 µM) | 0 |
| COc1cc(N2CCOCC2)ccc1Nc1ncc(Cl)c(Nc2ccccc2NS(C)(=O)=O)n1 (2.5 µM) | 0 |
| O=C(NC1CCOCC1)c1ccc(-c2cc(-c3c[nH]nc3-c3ccccn3)ccn2)cc1 (10 µM) | 0 |
| O=C1NC(=O)/C(=C/c2ccc3nccc(-c4ccncc4)c3c2)S1 (10 µM) | 0 |
| Cc1ncc(NC(=O)NC2c3ccccc3-c3ccccc32)c(-c2ccccc2)n1 (10 µM) | 0 |
| CC(C)C[C@@H](C(=O)Nc1ccn(C[C@@H](O)CO)n1)N1CC(Oc2ccccc2Cl)=CC1=O [Dorzagliatin] (10 µM) | 0 |
| O=C1O[C@H]([C@@H](O)CO)C(O)=C1OP(=O)(O)O [2-Phospho-L-ascorbic acid (trisodium)] (10 µM) | 0 |
| C[C@@H]1CC(=O)c2c(ccc3c2C(=O)c2cccc(O)c2C3=O)C1 [Ochromycinone] (10 µM) | 0 |
| Cc1c(-c2ccc(C(N)=O)c3[nH]c4cc(C(C)(C)O)ccc4c23)cccc1-n1cnc2ccccc2c1=O (2.5 µM) | 0 |
| CC(C)(C)n1nc(Cc2ccccc2O)c2c(N)ncnc21 (10 µM) | 0 |
| C=CC(=O)N1C(=O)CC(c2ccc(F)cc2)Sc2ccccc21 (stereo not drawn) [GSK-3β inhibitor 3] (10 µM) | 0 |
| CCc1ccc(OCC(=O)Nc2ccc(F)c([N+](=O)[O-])c2)cc1 (10 µM) | 0 |
| CN(C)c1nc2c(Br)c(Br)c(Br)c(Br)c2[nH]1 (10 µM) | 0 |
| Nc1ncnc2c1c(-c1ccc(Oc3ccccc3)cc1)nn2C1CCN(CCOCCOCCOc2ccc3c(c2)CN(C2CCC(=O)NC2=O)C3=O)CC1 (stereo not given) (2.5 µM) | 0 |
| Cc1cnc(NC2CCOCC2)nc1-n1cnc(C(=O)N[C@H](CN)c2cc(F)cc(Cl)c2)c1 (10 µM) | 0 |

| Compound | number of time points |
| --- | --- |
| FC(F)(F)c1ccc(/C=C/c2nc(COc3ccc(CCCCn4ccnn4)cc3)co2)cc1 [Mubritinib] (10 µM) | 0 |
| Cc1cc2sc(NC(=O)Cc3ccccc3)nc2cc1Cl (10 µM) | 0 |
| O=C(CNc1cccc(Cl)c1)NC1CCCN(c2ncnc3[nH]ccc23)C1 (stereo not given) (10 µM) | 0 |
| Oc1ccc(/C=C/c2cc(O)cc(F)c2)cc1 [Resveratrol analog 1] (10 µM) | 0 |
| CC/C(=N\NC(=O)c1ccnc(NCCCN2CCOCC2)c1)c1ccc(Cl)cc1O (2.5 µM) | 0 |
| O[C@@H]1CO[C@H]2[C@@H]1OC[C@H]2Oc1nc2nc(-c3ccc(-c4ccccc4)cc3)c(Cl)cc2[nH]1 (10 µM) | 0 |
| Nc1c(C(=O)NCc2ccc(C(=O)NCCCC3CCCCC3)cc2)cnn1-c1ccccc1 (2.5 µM) | 0 |
| Cc1ccc(C(=O)Nc2sc(Nc3ccccc3)nc2C(N)=O)cc1 (10 µM) | 0 |
| COc1cc(N(C)CCN(C)C)c(N)cc1Nc1nccc(-c2cn(C)c3ccccc23)n1 [Mutated EGFR-IN-1] (10 µM) | 0 |
| CCN(CC)c1cc2oc(=O)c(-c3nc4ccccc4o3)cc2cc1C (2.5 µM) | 0 |
| Cn1cc(-c2cnc3cnn(S(=O)(=O)c4cnc5ccc(-c6cnn(C)c6)cn45)c3c2)cn1 [Glumetinib] (10 µM) | 0 |
| Cc1ccc(NC(=O)c2ccnc(C(F)(F)F)c2)cc1-c1cc(OCCO)nc(N2CCOCC2)c1 (10 µM) | 0 |
| C=CC(=O)Nc1cccc(-c2cccc3cnc(Nc4ccc(N5CCN(CCO)CC5)c(F)c4F)nc23)c1 [Olafertinib] (2.5 µM) | 0 |
| CC(C)(C[C@H](N)C(=O)O)C(F)F [NV-5138 (hydrochloride)] (10 µM) | 0 |
| Cc1cc(C)nc(NS(=O)(=O)c2ccc(NC(=S)NC(=O)COc3ccc(Br)cc3Cl)cc2)n1 (2.5 µM) | 0 |
| CC[C@@](C)(Nc1ccnc(-c2c[nH]c3ncccc23)n1)C(=O)NCC(F)(F)F [Decernotinib] (10 µM) | 0 |
| COc1cc2ncnc(-n3nc(-c4ccccn4)nc3N)c2cc1OC (10 µM) | 0 |
| O=C1/C(=C\c2ccc(Cl)cc2)C=C(c2ccccc2)N1c1ccc(O)cc1 (2.5 µM) | 0 |
| Oc1ccc(/C=C/c2cc(O)cc(O)c2)cc1 [Resveratrol] (10 µM) | 0 |
